Experimental findings from paper doi:10.1101/701797 (bioRxiv, 2019) are described below.

Assay [1] addresses L37A mutant of C41L-PLB (dog) (UniProt P61012). As to the kind of experiment: SDS-PAGE oligomerization assay with immunoblot. A general note: In western blotting, separated proteins are transferred to a membrane and probed.
Assay [2] addresses I40A mutant of C41L-PLB (dog) (UniProt P61012). Briefly: SDS-PAGE oligomerization assay with immunoblot.

Substitutions are numbered along the chain they refer to. In names and notes the source's numbering stands. These are yes or no findings as the source states them, for the method shown.

B1: L37A mutant of C41L-PLB (protein, UniProt P61012 1-52)
chain: MDKVQYLTRSAIRRASTIEMPQQARQNLQNLFINFCAILILLLLICIIVMLL
Take B1: the binding entry in assay [1] was “no binding”.

B2: I40A mutant of C41L-PLB (protein, UniProt P61012 1-52)
chain: B1 chain with A37L, I40A
As for B2, in assay [2], the binding result is on record as “no binding”.
